Test results as given in publication PMC8929347.
Changes are numbered by the printed parent chain. Results are given in words; binding and its absence hold for the method and conditions named. In cells and extracts the contact can be indirect. Some results given as binding are weak or reduced against the parent protein; the word gives no strength. Where a sequence is shown, tags or fusion partners need not be part of it. Each block holds one binder with its values, some of them ahead of it.

Molecular target: T1, protein arginine methyltransferase 7 (PRMT7), FLAG-tagged (human) (UniProt Q9NVM4)
T1 sequence: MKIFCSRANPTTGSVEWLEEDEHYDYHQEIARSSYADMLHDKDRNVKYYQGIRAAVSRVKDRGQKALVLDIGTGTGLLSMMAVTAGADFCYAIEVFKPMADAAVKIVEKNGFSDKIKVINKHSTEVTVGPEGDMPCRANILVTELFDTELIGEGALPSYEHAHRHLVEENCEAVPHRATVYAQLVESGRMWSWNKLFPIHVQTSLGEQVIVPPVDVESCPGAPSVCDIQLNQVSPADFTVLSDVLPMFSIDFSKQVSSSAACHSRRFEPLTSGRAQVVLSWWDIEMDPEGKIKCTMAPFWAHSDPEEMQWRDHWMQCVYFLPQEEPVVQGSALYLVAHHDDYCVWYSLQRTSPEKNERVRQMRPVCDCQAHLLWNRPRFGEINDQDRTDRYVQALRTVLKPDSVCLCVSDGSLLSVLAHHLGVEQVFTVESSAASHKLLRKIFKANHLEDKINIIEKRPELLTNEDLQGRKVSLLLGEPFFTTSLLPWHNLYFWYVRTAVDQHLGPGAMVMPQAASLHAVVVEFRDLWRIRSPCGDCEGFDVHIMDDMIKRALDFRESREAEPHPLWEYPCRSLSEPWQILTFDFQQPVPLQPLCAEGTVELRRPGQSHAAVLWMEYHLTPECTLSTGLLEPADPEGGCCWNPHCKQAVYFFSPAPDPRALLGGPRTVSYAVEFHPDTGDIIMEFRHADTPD
Experiment: co-IP; HEK293 cells co-transfected with PRMT7-FLAG and ASS1-GFP (WT or mutant); NP-40 lysis buffer; PRMT7-FLAG precipitated with anti-FLAG M2 beads, 4°C, 4 h; western blot with anti-GFP and anti-FLAG M2

- binding: binds
B1: argininosuccinate synthase 1 (ASS1), wild type, GFP-tagged (enzyme, UniProt P00966 1-412)
chain: MSSKGSVVLAYSGGLDTSCILVWLKEQGYDVIAYLANIGQKEDFEEARKKALKLGAKKVFIEDVSREFVEEFIWPAIQSSALYEDRYLLGTSLARPCIARKQVEIAQREGAKYVSHGATGKGNDQVRFELSCYSLAPQIKVIAPWRMPEFYNRFKGRNDLMEYAKQHGIPIPVTPKNPWSMDENLMHISYEAGILENPKNQAPPGLYTKTQDPAKAPNTPDILEIEFKKGVPVKVTNVKDGTTHQTSLELFMYLNEVAGKHGVGRIDIVENRFIGMKSRGIYETPAGTILYHAHLDIEAFTMDREVRKIKQGLGLKFAELVYTGFWHSPECEFVRHCIAKSQERVEGKVQVSVLKGQVYILGRESPLSLYNEELVSMNVQGDYEPTDATGFININSLRLKEYHRLQSKVTAK

- binding: binds weakly
B2: argininosuccinate synthase 1 (ASS1) p.Thr323Ile, GFP-tagged (enzyme, UniProt P00966 1-412)
chain: B1 chain with T323I

- binding: binds
B3: argininosuccinate synthase 1 (ASS1) p.Leu313Met, GFP-tagged (enzyme, UniProt P00966 1-412)
chain: B1 chain with L313M
